Patent publication US6156316A, “Oncogene fusion protein peptide vaccines” (Sloan-Kettering Institute for Cancer Research, priority 1995, dated 2000)
Not every detail of the peptide structures is certain; ends, links or a residue may be inferred. No end group written: not given here.

Tested on: human T cells
Assay: Specific proliferation of human T cells, 3H-Thymidine incorporation
Assay type: cell-based
Conditions: T cells stimulated twice with b3a2-CML 25-mer, incubated 72 hours 1:1 with peptide-pulsed autologous PBMC

Sequence: IVHSATGFKQSSKALQRPVASDFEP
- specific proliferation of T cells (3H-Thymidine incorporation): specific proliferation
